The list shows only some results of the screen, not a fair sample: it is rich in T/C values a quarter to a half above the control, in often repeated tests (any T/C) and in doses without a T/C. Further doses and runs are listed elsewhere. T/C is the treated group as % of the vehicle group. Some entries give survivors of the animals treated and no T/C: the source files T/C as zero there, which appears to mark a toxic dose or a test without result, not a measured value. Some survivor counts are full or nearly so, which does not show that the dose was tolerated: survival well below the control is almost never listed, so the zero probably covers shortened survival too. Survivors were counted at the toxicity check, usually on the fifth day, unless a day is given; later deaths do not show. Schedule codes are those of the source, read here as Q, the interval in days (D) or hours (H), X, the number of doses. For survival time, the PubChem record calls one and a half times the control and up active, and a quarter to a half above the control has no call in these data; cut-offs in other NCI protocols can differ.
Test system: Lewis lung carcinoma i.m., BDF1 mice, T/C %
Experiment: NCI In Vivo Anticancer Drug Screen. Data for tumor model Lewis Lung Carcinoma (intramuscular) in B6D2F1 (BDF1) mice
Settings: for T/C: dose: 23.0 mg/kg/injection
Experimental: The antitumor activity of compounds was measured in mice bearing transplantable tumors. Survival or tumor size were measured and the results are expressed as the measurement made in the treated group (T) divided by the measurement made in the vehicle treated control group (C). The tumor model used in this assay is Lewis Lung Carcinoma (intramuscular) in B6D2F1 (BDF1) mice

`N=[N+]=CC(=O)CCC(NC(=O)C(CCC(=O)C=[N+]=N)NC(=O)CCC(N)C(=O)O)C(=O)O` (stereo not drawn) was tested, and the survivor count (T/C endpoint: mean tumor weight, dose: 0.06 mg/kg/injection, schedule: Q01DX011 (ip), vehicle: saline, higher T/C = larger tumour) was 5 of 8, the survivor count (T/C endpoint: median survival time, dose: 0.06 mg/kg/injection, schedule: Q01DX011 (ip), vehicle: saline, higher T/C = longer survival) was 5 of 8 and the survivor count (T/C endpoint: median survival time, dose: 0.1 mg/kg/injection, schedule: Q01DX009 (ip), vehicle: Klucel (hydroxypropylcellulose) (HPC), higher T/C = longer survival) was 10 of 10. The survivor count (T/C endpoint: median survival time, dose: 0.13 mg/kg/injection, schedule: Q01DX011 (ip), vehicle: saline, higher T/C = longer survival) was 2 of 8, the survivor count (T/C endpoint: median survival time, dose: 0.2 mg/kg/injection, schedule: Q01DX009 (ip), vehicle: Klucel (hydroxypropylcellulose) (HPC), higher T/C = longer survival) was 10 of 10 and the survivor count (T/C endpoint: median survival time, dose: 0.2 mg/kg/injection, schedule: Q01DX011 (ip), vehicle: saline, higher T/C = longer survival) was 10 of 10. The survivor count (T/C endpoint: median survival time, dose: 0.25 mg/kg/injection, schedule: Q01DX011 (ip), vehicle: saline, higher T/C = longer survival) was 0 of 8, the survivor count (T/C endpoint: median survival time, dose: 0.4 mg/kg/injection, schedule: Q01DX009 (ip), vehicle: Klucel (hydroxypropylcellulose) (HPC), higher T/C = longer survival) was 10 of 10 and the survivor count (T/C endpoint: median survival time, dose: 0.5 mg/kg/injection, schedule: Q01DX011 (ip), vehicle: saline, higher T/C = longer survival) was 0 of 8. The survivor count (T/C endpoint: median survival time, dose: 0.8 mg/kg/injection, schedule: Q01DX009 (ip), vehicle: Klucel (hydroxypropylcellulose) (HPC), higher T/C = longer survival) was 10 of 10, the survivor count (T/C endpoint: median survival time, dose: 0.8 mg/kg/injection, schedule: Q01DX011 (ip), vehicle: saline, higher T/C = longer survival) was 10 of 10 and the survivor count (T/C endpoint: median survival time, dose: 1.0 mg/kg/injection, schedule: Q01DX011 (ip), vehicle: saline, higher T/C = longer survival) was 0 of 8. For the same compound, the survivor count (T/C endpoint: median survival time, dose: 1.6 mg/kg/injection, schedule: Q01DX009 (ip), vehicle: Klucel (hydroxypropylcellulose) (HPC), higher T/C = longer survival) was 9 of 10 and the survivor count (T/C endpoint: median survival time, dose: 1.6 mg/kg/injection, schedule: Q01DX011 (ip), vehicle: saline, higher T/C = longer survival) was 9 of 10.
For `CN(C)/N=N/c1nc[nH]c1C(N)=O`, the survivor count (T/C endpoint: mean tumor weight, dose: 400.0 mg/kg/injection, schedule: Q01DX011 (ip), vehicle: steroid suspending solution, higher T/C = larger tumour) was 1 of 8, the T/C (T/C endpoint: median survival time, schedule: Q01DX010 (ip), vehicle: Klucel (hydroxypropylcellulose) (HPC), evaluated on day 12, higher T/C = longer survival) was 132 % of control and the T/C (T/C endpoint: median survival time, schedule: Q01DX010 (ip), vehicle: Klucel (hydroxypropylcellulose) (HPC), evaluated on day 40, higher T/C = longer survival) was 131 % of control. The survivor count (T/C endpoint: median survival time, dose: 108.0 mg/kg/injection, schedule: Q01DX011 (ip), vehicle: Klucel (hydroxypropylcellulose) (HPC), higher T/C = longer survival) was 8 of 8, the survivor count (T/C endpoint: median survival time, dose: 180.0 mg/kg/injection, schedule: Q01DX010 (ip), vehicle: Klucel (hydroxypropylcellulose) (HPC), higher T/C = longer survival) was 8 of 8 and the survivor count (T/C endpoint: median survival time, dose: 180.0 mg/kg/injection, schedule: Q01DX011 (ip), vehicle: Klucel (hydroxypropylcellulose) (HPC), higher T/C = longer survival) was 7 of 8. For the same compound, the survivor count (T/C endpoint: median survival time, dose: 200.0 mg/kg/injection, schedule: Q01DX009 (ip), vehicle: Klucel (hydroxypropylcellulose) (HPC), higher T/C = longer survival) was 10 of 10, the survivor count (T/C endpoint: median survival time, dose: 300.0 mg/kg/injection, schedule: Q01DX010 (ip), vehicle: Klucel (hydroxypropylcellulose) (HPC), higher T/C = longer survival) was 8 of 8 and the survivor count (T/C endpoint: median survival time, dose: 300.0 mg/kg/injection, schedule: Q01DX011 (ip), vehicle: Klucel (hydroxypropylcellulose) (HPC), higher T/C = longer survival) was 5 of 8. For the same compound, the survivor count (T/C endpoint: median survival time, dose: 400.0 mg/kg/injection, schedule: Q01DX009 (ip), vehicle: Klucel (hydroxypropylcellulose) (HPC), higher T/C = longer survival) was 10 of 10, the survivor count (T/C endpoint: median survival time, dose: 400.0 mg/kg/injection, schedule: Q01DX011 (ip), vehicle: steroid suspending solution, higher T/C = longer survival) was 1 of 8 and the survivor count (T/C endpoint: median survival time, dose: 500.0 mg/kg/injection, schedule: Q01DX010 (ip), vehicle: Klucel (hydroxypropylcellulose) (HPC), higher T/C = longer survival) was 8 of 8. For the same compound, the survivor count (T/C endpoint: median survival time, dose: 500.0 mg/kg/injection, schedule: Q01DX011 (ip), vehicle: Klucel (hydroxypropylcellulose) (HPC), higher T/C = longer survival) was 3 of 8 and the survivor count (T/C endpoint: median survival time, dose: 800.0 mg/kg/injection, schedule: Q01DX009 (ip), vehicle: Klucel (hydroxypropylcellulose) (HPC), higher T/C = longer survival) was 0 of 10.
